Laboratory results published in article PMC6376265, “A sequence conserved between CD5 and CD6 binds an FERM domain and exerts a restraint on T‐cell activation” (Immunology, 2018).
Results are given in words; binding and its absence hold for the method and conditions named. Binding seen in cells or lysates may run through a third protein. A yes stands for co-enrichment or nearness to the bait. Other partners may have been found. No binding means not detected with the bait.

Sequences of proteins named here, by UniProt entry; tags and fusion partners are left off.
UniProt P26038: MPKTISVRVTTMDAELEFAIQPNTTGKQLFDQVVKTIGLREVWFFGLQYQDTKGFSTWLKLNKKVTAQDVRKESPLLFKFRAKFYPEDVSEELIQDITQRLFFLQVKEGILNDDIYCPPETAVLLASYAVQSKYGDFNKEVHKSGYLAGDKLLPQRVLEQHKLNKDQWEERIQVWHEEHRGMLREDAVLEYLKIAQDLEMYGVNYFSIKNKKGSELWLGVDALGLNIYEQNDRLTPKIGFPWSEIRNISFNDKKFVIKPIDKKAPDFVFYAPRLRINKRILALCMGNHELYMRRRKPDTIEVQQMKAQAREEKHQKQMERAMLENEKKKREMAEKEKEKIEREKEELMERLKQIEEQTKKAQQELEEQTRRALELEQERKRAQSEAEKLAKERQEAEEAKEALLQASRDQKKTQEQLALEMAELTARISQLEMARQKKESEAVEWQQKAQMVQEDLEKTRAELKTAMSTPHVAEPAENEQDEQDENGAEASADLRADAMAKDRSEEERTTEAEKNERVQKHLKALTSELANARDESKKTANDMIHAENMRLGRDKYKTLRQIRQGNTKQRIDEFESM
UniProt Q15599: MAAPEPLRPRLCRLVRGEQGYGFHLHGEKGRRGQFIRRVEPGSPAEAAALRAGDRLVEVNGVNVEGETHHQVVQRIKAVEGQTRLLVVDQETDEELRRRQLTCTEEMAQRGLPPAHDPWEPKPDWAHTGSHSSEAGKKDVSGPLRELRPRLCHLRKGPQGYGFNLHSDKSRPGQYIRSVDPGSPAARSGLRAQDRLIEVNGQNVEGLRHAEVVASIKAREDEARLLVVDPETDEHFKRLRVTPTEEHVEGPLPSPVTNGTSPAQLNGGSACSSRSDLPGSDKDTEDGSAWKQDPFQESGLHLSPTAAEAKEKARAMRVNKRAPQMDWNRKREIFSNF
UniProt P35241: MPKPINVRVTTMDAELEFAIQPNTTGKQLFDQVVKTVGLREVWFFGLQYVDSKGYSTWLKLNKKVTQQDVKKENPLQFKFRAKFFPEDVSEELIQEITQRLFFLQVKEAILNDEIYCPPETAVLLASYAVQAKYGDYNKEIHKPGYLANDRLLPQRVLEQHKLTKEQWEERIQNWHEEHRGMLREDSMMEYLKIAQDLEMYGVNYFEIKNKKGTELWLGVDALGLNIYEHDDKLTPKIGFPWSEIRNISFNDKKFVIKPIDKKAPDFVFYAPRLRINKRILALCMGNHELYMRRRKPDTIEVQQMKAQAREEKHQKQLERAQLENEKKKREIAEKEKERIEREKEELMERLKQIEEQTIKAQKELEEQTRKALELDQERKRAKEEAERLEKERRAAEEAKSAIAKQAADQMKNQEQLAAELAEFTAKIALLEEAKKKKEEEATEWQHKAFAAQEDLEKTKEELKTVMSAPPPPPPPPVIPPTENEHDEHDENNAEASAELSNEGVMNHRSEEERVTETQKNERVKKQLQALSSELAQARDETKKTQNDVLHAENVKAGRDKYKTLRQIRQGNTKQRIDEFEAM
UniProt P15311: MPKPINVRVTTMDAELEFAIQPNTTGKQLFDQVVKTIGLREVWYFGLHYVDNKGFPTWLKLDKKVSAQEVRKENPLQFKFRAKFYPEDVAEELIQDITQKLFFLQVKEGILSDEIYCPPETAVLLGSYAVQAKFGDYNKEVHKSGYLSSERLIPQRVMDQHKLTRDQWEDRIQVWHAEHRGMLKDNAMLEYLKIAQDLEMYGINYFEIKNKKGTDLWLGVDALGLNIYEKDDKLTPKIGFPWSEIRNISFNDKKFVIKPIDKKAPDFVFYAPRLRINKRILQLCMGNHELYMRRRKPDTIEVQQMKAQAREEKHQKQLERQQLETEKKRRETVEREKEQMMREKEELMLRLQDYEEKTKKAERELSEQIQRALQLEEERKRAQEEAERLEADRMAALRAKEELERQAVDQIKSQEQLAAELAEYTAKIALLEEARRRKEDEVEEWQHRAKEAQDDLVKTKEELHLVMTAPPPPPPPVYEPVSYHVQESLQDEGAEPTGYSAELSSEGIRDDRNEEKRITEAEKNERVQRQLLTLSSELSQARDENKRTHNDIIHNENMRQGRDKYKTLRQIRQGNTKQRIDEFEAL
UniProt O14745: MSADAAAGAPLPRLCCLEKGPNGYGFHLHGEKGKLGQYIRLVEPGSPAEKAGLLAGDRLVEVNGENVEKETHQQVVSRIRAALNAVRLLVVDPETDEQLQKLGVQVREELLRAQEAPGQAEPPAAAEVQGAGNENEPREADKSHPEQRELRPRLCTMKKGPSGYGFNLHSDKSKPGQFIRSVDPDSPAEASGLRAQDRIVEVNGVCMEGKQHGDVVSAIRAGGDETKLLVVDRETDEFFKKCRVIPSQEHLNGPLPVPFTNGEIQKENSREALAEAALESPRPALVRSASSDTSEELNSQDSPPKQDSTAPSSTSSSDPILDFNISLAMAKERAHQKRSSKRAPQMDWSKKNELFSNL

Target: T1, control peptide (CD5) (human)
T1 sequence (peptide, biotinylated at the N terminus): HVDNEYSQPPRNS
Experiment: affinity purification with mass spectrometry; peptides immobilized on magnetic beads and used to isolate interacting proteins from Jurkat T-cell lysates; on-filter digest, LC-MS/MS (Q Exactive), MASCOT; only the target purified

binding, no binding:
Moesin (from UniProt P26038 1-577)
Na+/H+ exchange regulatory cofactor (NHE-RF) 2 (from UniProt Q15599 1-337)
Radixin (from UniProt P35241 1-583)
Ezrin (from UniProt P15311 1-586)
Na+/H+ exchange regulatory cofactor (NHE-RF) 1 (from UniProt O14745 1-358)
